The list shows a part of the results.

By UniProt entry, the sequences of proteins in these tests, tags left out.
UniProt Q0JBA9, entry or part of it: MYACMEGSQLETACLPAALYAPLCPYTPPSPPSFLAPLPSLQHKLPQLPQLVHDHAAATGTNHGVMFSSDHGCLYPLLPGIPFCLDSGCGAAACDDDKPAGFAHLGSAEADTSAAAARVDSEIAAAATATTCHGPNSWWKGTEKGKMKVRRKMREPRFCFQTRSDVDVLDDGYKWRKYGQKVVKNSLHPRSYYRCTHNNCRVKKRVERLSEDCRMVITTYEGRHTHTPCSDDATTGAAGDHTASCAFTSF

For the test, the target named is OsWRKY34 (Oryza sativa, UniProt Q0JBA9 1-250). Nature of the test: protein-binding microarray (RPBM); PBS, 2% BSA, 51.3 ng/ul salmon testes DNA, 50 uM zinc acetate, 200 nM TF, 25 C, 1 h; high values mean tight binding. Particulars: protein: recombinant; tags: N-terminal polyhistidine and DsRed monomer fusion (pET32a); label: CyDye5-dUTP incorporated in the synthesized complementary strand; 3' TTTTT single-stranded linker to array surface; dsDNA, one strand shown. Summed up:
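Binding signal here means per-feature fluorescence intensity in arbitrary units. The values were read on an Axon 4000B scanner after a custom Agilent array, double-stranded by primer extension with Cy5-dUTP, was incubated with 200 nM protein at 25 °C for 1 h in PBS with 2% BSA, salmon testes DNA and 50 µM zinc acetate, then washed. The proteins were transcription factors with an N-terminal polyhistidine tag and DsRed, expressed in E. coli BL21-CodonPlus and purified on Ni–NTA.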
Regarding “TGTCACATTCCAGTCCATGCCCTCTCCCAGATCGACTTGTCGGAGTCACCTAGTGCAG”, the binding signal is 8950 fluorescence intensity (a.u.).

Regarding “AACGATTTGCATGTCATACAGATACATCACATTTCTTTCTCGGAGTCACCTAGTGCAG”, the binding signal is 8520 fluorescence intensity (a.u.).

Take “CCTCCACCCCACCACCACCACCACCTCGCCGCCGACGTCGCGGAGTCACCTAGTGCAG”: the binding signal was 10100 fluorescence intensity (a.u.).

Take “TACACCACCCTTTCATCTACTTGCATGGTTGCACCACTATCGGAGTCACCTAGTGCAG”: the binding signal is 10200 fluorescence intensity (a.u.).

For “GGGGTTGCGGAAGAGGTGGAGGCTGCGGCGGACATCGTCGCGGAGTCACCTAGTGCAG”, the binding signal was 8120 fluorescence intensity (a.u.).

Take “ATCCTCTTCTTCCTCTCCGGCCGCCTCCTTCCTCACCATGCGGAGTCACCTAGTGCAG”: the binding signal is 10800 fluorescence intensity (a.u.).

As for “ATGCACCAACCGATCCAGTCCAGAGACATCCACACATTCGCGGAGTCACCTAGTGCAG”, the binding signal is 8410 fluorescence intensity (a.u.).

“CATGTTCTTTTTTTTTACATAGAGTAATATTTGGTTTGTACGGAGTCACCTAGTGCAG”: the binding signal was 8500 fluorescence intensity (a.u.).

With “TTTTCTTCTTTTTTTCTTATTTATTCACTTGCCACATTATCGGAGTCACCTAGTGCAG”, the binding signal was 10400 fluorescence intensity (a.u.).

In the case of “CCTCAATCCACGCACGTTAGCAATAGGGTTCTTTCATTTTCGGAGTCACCTAGTGCAG”, the binding signal is 8580 fluorescence intensity (a.u.).

Consider “GCAAACATGCCACCTCATCATCCACTAGCAATAATTACATCGGAGTCACCTAGTGCAG”, for which the binding signal was 8440 fluorescence intensity (a.u.).

“TTTTCTTTCTCCCGTGCCTGTTCTTTTCTTTCTTGCAAGCCGGAGTCACCTAGTGCAG”: the binding signal is 9300 fluorescence intensity (a.u.).

“TGTTCATCTCTGCACCACCATTAGCTAGTTGGTTTCTCGACGGAGTCACCTAGTGCAG”: the binding signal was 10000 fluorescence intensity (a.u.).

In the case of “CGGTCGTACTCCGTCCTGCATCCACCCAACACAAACCAATCGGAGTCACCTAGTGCAG”, the binding signal is 9830 fluorescence intensity (a.u.).

“CCCCACCCCACTACTCCTCTCCACCGCCATCATTGTCGGCCGGAGTCACCTAGTGCAG”: the binding signal was 9210 fluorescence intensity (a.u.).

As for “GATCGCTCCATAAACATGCAATATATCAATTTTAACTTTTCGGAGTCACCTAGTGCAG”, the binding signal was 8900 fluorescence intensity (a.u.).

With “ATCGACATGTTCCGCTCACCGTGGGTTCTATCAAGGCCTACGGAGTCACCTAGTGCAG”, the binding signal was 8030 fluorescence intensity (a.u.).

On to “GCCTGCCTGTCTGCCTCCGCGTCTTTTCTGCTGCCCACATCGGAGTCACCTAGTGCAG”, for which the binding signal is 19500 fluorescence intensity (a.u.).

In the case of “CCTTCTCGTCCATTTTCCCACTACACCACAAAATCCAGGTCGGAGTCACCTAGTGCAG”, the binding signal was 9300 fluorescence intensity (a.u.).

With “CGCAGTCCGAAGTTGATTTTTTTTTTTTTTACGGAGTACTCGGAGTCACCTAGTGCAG”, the binding signal is 8250 fluorescence intensity (a.u.).

As for “TTTTGCTTTCTACATAATTGTGTGCCATTAATTTTATTTTCGGAGTCACCTAGTGCAG”, the binding signal was 9200 fluorescence intensity (a.u.).

Consider “CCGGCTCAGTGTTCTGGAGGGGTAGGGTGTGCGTTCATAGCGGAGTCACCTAGTGCAG”, for which the binding signal is 13000 fluorescence intensity (a.u.).

As for “ACTCGATCCAAACACAAGAAGTTCCATGCATGTTAATCGACGGAGTCACCTAGTGCAG”, the binding signal is 8570 fluorescence intensity (a.u.).

Consider “ATTGAAATGGTTGACGTCGTTTTATTTTTTTTGTTACTTTCGGAGTCACCTAGTGCAG”, for which the binding signal was 8740 fluorescence intensity (a.u.).

As to “CACGTTGCCGTCTCATCTCACCACCAGCATCAACACAAAACGGAGTCACCTAGTGCAG”, the binding signal is 9340 fluorescence intensity (a.u.).

Turning to “GCCCCGCCCCGCCCATCTTGTCAGATCCTTCTTCATAGTTCGGAGTCACCTAGTGCAG”, the binding signal was 8890 fluorescence intensity (a.u.).

Turning to “GCAACCTCAGGATGCTCCACGAGCTTTCTCTTAGCTACAACGGAGTCACCTAGTGCAG”, the binding signal was 17000 fluorescence intensity (a.u.).

On to “ATATTATCTACGTGGACACTTTCATTGATTAATGTATTTCCGGAGTCACCTAGTGCAG”, for which the binding signal is 10300 fluorescence intensity (a.u.).

Turning to “ACTAGTTGGGGTGTATAAGGTATGAGTATGATATATATGGCGGAGTCACCTAGTGCAG”, the binding signal was 9480 fluorescence intensity (a.u.).

Regarding “TGGCGCTTTCTGTGATTCTTTCCAAATCGGCACATAAATTCGGAGTCACCTAGTGCAG”, the binding signal was 8810 fluorescence intensity (a.u.).

As for “CTGTTCACTTAGCCGCATCCAGCGCCGGGCACCTTCTCCGCGGAGTCACCTAGTGCAG”, the binding signal was 9920 fluorescence intensity (a.u.).

On to “TCTGTTCTGGTGGATGCTTTAAAGTCAACTGTCTATGATCCGGAGTCACCTAGTGCAG”, for which the binding signal is 10300 fluorescence intensity (a.u.).

Regarding “CCGCCACGCCATCCCGTGCTCCTAACCATATTGTCTCTCTCGGAGTCACCTAGTGCAG”, the binding signal is 10200 fluorescence intensity (a.u.).

As to “CAAACACGCATTAAAAAGTCAACGGTGTCAAATATTTTGACGGAGTCACCTAGTGCAG”, the binding signal was 10400 fluorescence intensity (a.u.).

Regarding “TTTTCAGTAGATAACATCGTTGACTTTTCAACGAATATTTCGGAGTCACCTAGTGCAG”, the binding signal is 14400 fluorescence intensity (a.u.).

Turning to “TGATTCGTGTCTTCGTGAGTCGTGACCACGGGAGGGGAGGCGGAGTCACCTAGTGCAG”, the binding signal was 9410 fluorescence intensity (a.u.).

As for “AATTAGGTTTCCATTGGAATTTTTTTCATGCTGACAATTCCGGAGTCACCTAGTGCAG”, the binding signal was 8030 fluorescence intensity (a.u.).

For the sequence “ACCGTTTTTCTTGCAATGGTTGTTGTTGGGTTGATCTTGCCGGAGTCACCTAGTGCAG”, the binding signal was 8600 fluorescence intensity (a.u.).

Consider “ACCTTAATTTTCTCGGTTTTATTTTCTGCCTGAGCTTATTCGGAGTCACCTAGTGCAG”, for which the binding signal was 9360 fluorescence intensity (a.u.).

For “ATTCAGGTGCTTTACTCAAGTTTGTTAGGTTGTGTTCCTTCGGAGTCACCTAGTGCAG”, the binding signal was 12300 fluorescence intensity (a.u.).

Regarding “TAGGGGTCTTTTCCATGTTTCCTCGGGATCAATTTCGGTTCGGAGTCACCTAGTGCAG”, the binding signal is 9390 fluorescence intensity (a.u.).

In the case of “ATTTTGTTCTTTTTTTTTTCCTTTTCTATTTCTGGACTTTCGGAGTCACCTAGTGCAG”, the binding signal is 10500 fluorescence intensity (a.u.).

For “ATCTATCACTACCGAAAGCCGGGCGGGGCGAAACTGCAAACGGAGTCACCTAGTGCAG”, the binding signal was 8460 fluorescence intensity (a.u.).

As to “ATCGATTTTTCTATACGGTCATCTTAAGTCGACCACACGGCGGAGTCACCTAGTGCAG”, the binding signal is 8450 fluorescence intensity (a.u.).

Take “TTCATGCTTCATTCTGTATTGTTTTTTTTTTTTTGAAAAACGGAGTCACCTAGTGCAG”: the binding signal is 8420 fluorescence intensity (a.u.).

In the case of “AGTTGTGTACTTGTGTTGCCGCAACTTTTAGTTCTTTGCTCGGAGTCACCTAGTGCAG”, the binding signal is 8790 fluorescence intensity (a.u.).

Regarding “ATCCGATGTTTGTTAATTTGATGCGGTTTAGCTGGCAGCTCGGAGTCACCTAGTGCAG”, the binding signal was 9040 fluorescence intensity (a.u.).

In the case of “CATCAGATCACTCGCTCTCCTCTTATTCCTTGTCCCAACTCGGAGTCACCTAGTGCAG”, the binding signal was 9440 fluorescence intensity (a.u.).

Regarding “CTTTTGTGCTCATCTGAACTTCTGAAGTATCATAAAGAAGCGGAGTCACCTAGTGCAG”, the binding signal is 31400 fluorescence intensity (a.u.).

For “GAAACTTTCCTACGCACAAACTTTCAACTTTTACGTCACACGGAGTCACCTAGTGCAG”, the binding signal is 8680 fluorescence intensity (a.u.).

For “AGGTTTCTTTCTTGTGTTCATTGCTTTTTTATGCTCAATGCGGAGTCACCTAGTGCAG”, the binding signal was 8750 fluorescence intensity (a.u.).

For the sequence “ACACATTGACCGGCCCAATTATTCTCTGCTTGTTTGGCCCCGGAGTCACCTAGTGCAG”, the binding signal was 13700 fluorescence intensity (a.u.).

With “ATATGGAAGATTCTGTACTCATGGTGGTTTTTCTTTTTTTCGGAGTCACCTAGTGCAG”, the binding signal was 8510 fluorescence intensity (a.u.).

With “GCCTTCCGTTCCGCTCCTCTACCGCCGCGTCAAGATTCCCCGGAGTCACCTAGTGCAG”, the binding signal was 8440 fluorescence intensity (a.u.).
